Key:
Assay type in all cases: in vivo, Streptococcus pneumoniae
[1] = tested on: Strain CipR45; experiment: PK/PD parameters against strain CipR45; settings: over 24 h; for fT>MIC: free drug, 40 mg/kg (SCN) or 50 mg/kg (LVX)
[2] = tested on: Strain CipR57; experiment: PK/PD parameters against strain CipR57; settings: over 24 h; for fT>MIC: free drug, 40 mg/kg (SCN) or 50 mg/kg (LVX); for fAUC/MIC: free fraction from protein binding 40% (SCN), 12% (LVX), 40 or 50 mg/kg
[3] = tested on: CipR45 and CipR57; experiment: PK/PD parameters against CipR45 and CipR57 (bounds given in text); settings: upper bound over CipR45 and CipR57; highest dose tested

SMILES	fT>MIC [1] [%]	fAUC/MIC ([1]; free fraction from protein binding 40% (SCN), 12% (LVX), 40 or 50 mg/kg) [h]	fT>MIC [2] [%]	fAUC/MIC [2] [h]	fAUC/MIC [3] [h]
C[C@H]1COc2c(N3CCN(C)CC3)c(F)cc3c(=O)c(C(=O)O)cn1c23 [Levofloxacin, levofloxacin]	24.2 ± 2.8	15.2 ± 1.3	0.0	1.9 ± 0.16	≤ 15.2
CNCCc1cc2c(c3c1ccc1cc4c(cc13)OCO4)OCO2 [Seconeolitsine, seconeolitsine]	0.0	–	0.0	2.3 ± 0.0	–

— paper PMC8152265, “Seconeolitsine, the Novel Inhibitor of DNA Topoisomerase I, Protects against Invasive Pneumococcal Disease Caused by Fluoroquinolone-Resistant Strains” (Antibiotics, 2021)
